Laboratory results taken from publication PMC9960487, “A novel Menin-MLL1 inhibitor, DS-1594a, prevents the progression of acute leukemia with rearranged MLL1 or mutated NPM1” (Cancer Cell International, 2023).
These are yes or no findings as the source states them, for the method shown. Binding seen in cells or lysates may run through a third protein. Some binding calls cover weakened binding; strength is not graded here.

The chains behind the UniProt entries cited, without tags or fusion partners. Residues count along the entry.
UniProt Q03164, residues 1-1395: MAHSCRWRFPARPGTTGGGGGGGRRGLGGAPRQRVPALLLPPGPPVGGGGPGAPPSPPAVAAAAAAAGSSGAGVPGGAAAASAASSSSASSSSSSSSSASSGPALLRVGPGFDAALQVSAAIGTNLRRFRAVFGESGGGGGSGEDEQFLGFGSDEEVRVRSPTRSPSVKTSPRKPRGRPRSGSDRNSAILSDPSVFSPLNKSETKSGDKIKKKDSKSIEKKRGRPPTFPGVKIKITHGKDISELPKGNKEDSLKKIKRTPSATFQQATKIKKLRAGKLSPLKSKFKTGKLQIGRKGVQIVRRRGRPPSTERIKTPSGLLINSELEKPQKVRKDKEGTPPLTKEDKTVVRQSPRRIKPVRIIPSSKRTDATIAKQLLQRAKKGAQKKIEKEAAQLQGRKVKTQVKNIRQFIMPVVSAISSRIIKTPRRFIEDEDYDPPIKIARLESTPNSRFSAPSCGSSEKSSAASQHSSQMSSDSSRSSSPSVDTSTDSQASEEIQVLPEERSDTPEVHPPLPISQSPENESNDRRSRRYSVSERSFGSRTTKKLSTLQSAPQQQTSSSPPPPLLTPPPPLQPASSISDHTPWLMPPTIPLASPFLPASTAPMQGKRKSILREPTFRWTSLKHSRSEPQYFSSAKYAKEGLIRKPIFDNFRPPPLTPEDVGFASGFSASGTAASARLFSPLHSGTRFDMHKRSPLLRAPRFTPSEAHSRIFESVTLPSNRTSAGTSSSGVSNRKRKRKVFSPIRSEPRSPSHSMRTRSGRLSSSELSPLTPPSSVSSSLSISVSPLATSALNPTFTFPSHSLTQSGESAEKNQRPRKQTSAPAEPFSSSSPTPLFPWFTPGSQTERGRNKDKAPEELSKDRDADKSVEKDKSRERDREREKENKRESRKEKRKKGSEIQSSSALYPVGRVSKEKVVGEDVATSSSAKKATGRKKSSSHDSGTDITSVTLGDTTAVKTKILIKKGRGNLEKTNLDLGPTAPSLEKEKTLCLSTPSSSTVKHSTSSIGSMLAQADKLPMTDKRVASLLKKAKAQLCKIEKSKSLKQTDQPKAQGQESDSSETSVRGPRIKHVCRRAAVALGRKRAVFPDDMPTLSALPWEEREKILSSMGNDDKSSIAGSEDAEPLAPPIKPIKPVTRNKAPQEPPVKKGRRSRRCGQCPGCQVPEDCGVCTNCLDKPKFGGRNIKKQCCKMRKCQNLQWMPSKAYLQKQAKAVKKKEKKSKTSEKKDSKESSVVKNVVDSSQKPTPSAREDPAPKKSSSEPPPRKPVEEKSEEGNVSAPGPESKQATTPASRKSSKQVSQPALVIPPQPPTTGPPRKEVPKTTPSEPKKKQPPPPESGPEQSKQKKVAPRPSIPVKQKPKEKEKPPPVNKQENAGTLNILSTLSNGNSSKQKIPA

Molecular target: HA-human MLL1N truncated protein (HA-MLL1N_(1-1395)) (human) (UniProt Q03164)
Assay: co-IP; anti-HA antibody or control IgG on HEK293T cells transfected with HA-MLL1N_(1-1395); cells treated with DMSO or DS-1594a·succinate (10, 30, 100, 300, 1000 nM); endogenous Menin detected

B1: endogenous Menin protein (protein, UniProt O00255 1-610)
chain: MGLKAAQKTLFPLRSIDDVVRLFAAELGREEPDLVLLSLVLGFVEHFLAVNRVIPTNVPELTFQPSPAPDPPGGLTYFPVADLSIIAALYARFTAQIRGAVDLSLYPREGGVSSRELVKKVSDVIWNSLSRSYFKDRAHIQSLFSFITGTKLDSSGVAFAVVGACQALGLRDVHLALSEDHAWVVFGPNGEQTAEVTWHGKGNEDRRGQTVNAGVAERSWLYLKGSYMRCDRKMEVAFMVCAINPSIDLHTDSLELLQLQQKLLWLLYDLGHLERYPMALGNLADLEELEPTPGRPDPLTLYHKGIASAKTYYRDEHIYPYMYLAGYHCRNRNVREALQAWADTATVIQDYNYCREDEEIYKEFFEVANDVIPNLLKEAASLLEAGEERPGEQSQGTQSQGSALQDPECFAHLLRFYDGICKWEEGSPTPVLHVGWATFLVQSLGRFEGQVRQKVRIVSREAEAAEAEEPWGEEAREGRRRGPRRESKPEEPPPPKKPALDKGLGTGQGAVSGPPRKPPGTVAGTARGPEGGSTAQVPAPTASPPPEGPVLTFQSEKMKGMKELLVATKINSSAIKLQLTAQSQVQMKKQKVSTPSDYTLSFLKRQRKGL
**Q.** Which binding does the source give for B1 here?
**A.** binds
